Record: PubChem BioAssay AID1259424 (University of Nebraska Medical Center, 2018)

Screen: 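Seek colon cancer survival genes behaving like KSR1, using a six-gene signature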 (primary screen)
Cells: human HCT116 colon cancer cells
Reagents: siRNA pool against human genes, 50 nM
Detection: 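Six signature mRNAs by branched-DNA multiplex assay, scaled to two housekeeping genes and non-targeting median, log2; matched to mean KSR1 knockdown profile by Pearson correlation and euclidean distance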
Scale: mean correlation with KSR1 profile: higher = expression change more like KSR1 knockdown
The whole screen tested about 14,000 reagents; below is a part drawn at random. 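Higher correlation or smaller distance means closer resemblance to KSR1 loss; control wells, including KSR1 knockdowns, recur on many plates.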 Not all columns of the deposit are shown. Not stated in the record: the time to read-out.

target	mean correlation with KSR1 profile
FUNDC2 (FUN14 domain containing 2)	0.114
IKZF1 (IKAROS family zinc finger 1)	-0.0498
SAA1 (serum amyloid A1)	-0.0779
TRAPPC13 (trafficking protein particle complex subunit 13)	-0.0832
UNC50 (unc-50 inner nuclear membrane RNA binding protein)	0.276
TRPV2	-0.416
NABP2 (nucleic acid binding protein 2)	0.119
BTN3A3 (butyrophilin subfamily 3 member A3)	-0.133
FSCN2 (fascin actin-bundling protein 2, retinal)	0.736
GNRH1 (gonadotropin releasing hormone 1)	0.761
KIZ (kizuna centrosomal protein)	-0.555

In a second layout: results already given
{"target":"FUNDC2 (FUN14 domain containing 2)","mean correlation with KSR1 profile":0.114}
{"target":"IKZF1 (IKAROS family zinc finger 1)","mean correlation with KSR1 profile":-0.0498}

The results go on:
target	mean correlation with KSR1 profile
IL7R (interleukin 7 receptor)	0.0417
PRR4 (proline rich 4)	0.302
GPN2 (GPN-loop GTPase 2)	0.215
USP31 (ubiquitin specific peptidase 31)	-0.638
WBSCR23 (Williams-Beuren syndrome chromosome region 23)	0.657
PCDHGA1 (protocadherin gamma subfamily A, 1)	-0.709
ABCG8 (ATP binding cassette subfamily G member 8)	0.801
UQCC1 (ubiquinol-cytochrome c reductase complex assembly factor 1)	-0.284
GPR173 (G protein-coupled receptor 173)	0.53
